PubChem BioAssay AID1259424, University of Nebraska Medical Center – 2018
Here is an unselected part of about 14,000 reagents tested. 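Higher correlation or smaller distance means closer resemblance to KSR1 loss; control wells, including KSR1 knockdowns, recur on many plates.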 Not all columns of the deposit are shown. No sequences are given here. Not given: the time to read-out.

- Purpose: 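Find knockdowns that reproduce the expression shifts seen after KSR1 loss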 (primary screen)
- System: human HCT116 colon cancer cells
- Reagents: siRNA pool against human genes, 50 nM
- Detection: 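Six signature mRNAs by branched-DNA multiplex assay, scaled to two housekeeping genes and non-targeting median, log2; matched to mean KSR1 knockdown profile by Pearson correlation and euclidean distance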
- Reading the numbers: mean correlation with KSR1 profile: higher = expression change more like KSR1 knockdown

gene knocked down	mean correlation with KSR1 profile
PRKAG3 (GeneID 53632)	-0.0358
MYOD1 (GeneID 4654)	0.294
KCNJ3 (GeneID 3760)	0.757
TBXAS1 (GeneID 6916)	0.0235
ECHDC3 (GeneID 79746)	0.732
DHX29 (GeneID 54505)	0.0419
RBBP5 (GeneID 5929)	-0.402
MAGED2 (GeneID 10916)	-0.474
NKD2 (GeneID 85409)	0.378
MYO19 (GeneID 80179)	0.0707
PISD (GeneID 23761)	0.232
THAP12 (GeneID 5612)	-0.155
DGKA (GeneID 1606)	0.363
FECH (GeneID 2235)	0.0553
PDS5A (GeneID 23244)	0.192
CUL2 (GeneID 8453)	-0.682
CDK2 (GeneID 1017)	0.128
FAM50A (GeneID 9130)	-0.287
BCL7C (GeneID 9274)	0.211
PLAUR (GeneID 5329)	-0.384
ETV4 (GeneID 2118)	0.83
CD247 (GeneID 919)	-0.24
AQP4 (GeneID 361)	-0.291
PABPC3 (GeneID 5042)	0.0905
DHDDS (GeneID 79947)	-0.169
CLEC4A (GeneID 50856)	-0.318
IGF2BP1 (GeneID 10642)	0.466

Next part (5 carried over from the part before).
gene knocked down	mean correlation with KSR1 profile
AQP4 (GeneID 361)	-0.291
PABPC3 (GeneID 5042)	0.0905
DHDDS (GeneID 79947)	-0.169
CLEC4A (GeneID 50856)	-0.318
IGF2BP1 (GeneID 10642)	0.466
TUBGCP3 (GeneID 10426)	-0.53
ACE2 (GeneID 59272)	0.681
AS3MT (GeneID 57412)	0.12
UBOX5 (GeneID 22888)	-0.522
NDUFAF5 (GeneID 79133)	-0.698
ARHGEF7 (GeneID 8874)	0.317
SALL1 (GeneID 6299)	0.0724
IL20 (GeneID 50604)	-0.222
CREBL2 (GeneID 1389)	-0.0813
FKBP1B (GeneID 2281)	-0.595
ANAPC1 (GeneID 64682)	0.0776
SNED1 (GeneID 25992)	0.73
PRDM2 (GeneID 7799)	0.209
LRRC8A (GeneID 56262)	-0.324
FLJ10232 (retired record) (GeneID 55099)	0.38
FZD3 (GeneID 7976)	0.588
SECTM1 (GeneID 6398)	-0.662
MAPRE2 (GeneID 10982)	0.128
RDH5 (GeneID 5959)	0.169
YWHAE (GeneID 7531)	-0.246
MYL5 (GeneID 4636)	-0.646
MMP21 (GeneID 118856)	-0.541
AZIN1 (GeneID 51582)	-0.0305
CCNI (GeneID 10983)	0.326
